From PubChem BioAssay AID540276 (National Center for Advancing Translational Sciences (NCATS), 2011)
Screen size: about 300,000 compounds; about 5,400 (1.8%) were called active. The inconclusive results got no clear call from the source; some entries with a clear call stand among them for comparison. Calls come from the whole dose curve; tested in HEK293 cells. Where the call is inconclusive, the potency comes from a doubtful curve fit.

assay: qHTS for inhibitors of binding or entry into cells for Marburg Virus; conditions: Marburg virus pseudotyped entry inhibition, cell reporter; series mostly up to 37.8 µM
Potency is the fitted concentration of half-maximal effect.

Row | SMILES | Potency
1 | COc1ccc(-n2nc(C(=O)N3CCCC(C)C3)c3c4ccccc4n(C)c3c2=O)cc1Cl (centres undefined) | inactive
2 | COc1cc(/C=C2\SC(=S)N(CCC(=O)Nc3cccc(O)c3)C2=O)cc(OC)c1OC | inconclusive: 35.5 µM [inhibitor, single point]
3 | COc1cccc(-n2ccnc2SCC(=O)Nc2nccs2)c1 | inactive
4 | COc1cc(/C=C2/CCC/C(=C\c3cc(O)c(OC)c(Cl)c3)C2=O)cc(Cl)c1O | inconclusive: 14.6 µM [inhibitor, partial curve]
5 | Cc1ccc(NC(=O)CN(C)C(=O)COC(=O)COc2ccc(C#N)cc2)cc1 | inconclusive: 1.12 µM [activator, full curve]
6 | Cc1ccc2nc(-c3ccc(NS(=O)(=O)c4ccccc4)cc3)sc2c1 | inconclusive: 31.6 µM [activator, single point]
7 | Cc1csc(NC(=O)C2CSC3(C)CCC(=O)N23)n1 (centres undefined) | inconclusive: 1.41 µM [inhibitor, partial curve, poor fit]
8 | Cc1cc(C)nc(SCC(=O)Nc2cccc(S(=O)(=O)N(C)C)c2)n1 | inactive
9 | COc1ccc(/C=C/CN2CCN(Cc3ccccc3)C(CCO)C2)cc1 (centres undefined) | inconclusive: 35.5 µM [inhibitor, single point]
10 | COc1cccc(NC(=O)CSc2nc3ccccc3c(=O)n2CCCC(=O)NCCCN2CCOCC2)c1 | inconclusive: 22.4 µM [inhibitor, partial curve, poor fit]
11 | Cc1ccc(C(=O)OCC(=O)c2c[nH]c3ccccc23)cc1S(=O)(=O)N1CCOCC1 | inactive
12 | COc1cccc(C(=O)NCCS(=O)(=O)NC2CCCC2)c1 | inactive
13 | COC(=O)N/N=C/c1ccc([N+](=O)[O-])s1 | inconclusive: 2.24 µM [inhibitor, single point]
14 | COc1cc2ncnc(NCc3ccccc3C)c2cc1OC | inactive
15 | CCn1c(NC(=O)/C=C/c2ccc(F)cc2)nc2ccccc21 | inconclusive: 35.5 µM [inhibitor, single point]
16 | O=C(NCCc1ccccc1)C1CCC(Cn2c(=O)c3ccccc3n(Cc3cccnc3)c2=O)CC1 (centres undefined) | inconclusive: 35.5 µM [inhibitor, single point]
17 | O=C(CSc1ccc(-c2ccco2)nn1)Nc1ccc(F)cc1F | inactive
18 | CCC(CC)NC(=O)CO/N=C/c1ccc(Cl)cc1Cl | inconclusive: 1.12 µM [inhibitor, full curve, poor fit]
19 | CCOCCCNC(=S)NCCCNc1nc2c(C)c(C)ccc2cc1C#N | inconclusive: 25.1 µM [inhibitor, single point]
20 | COc1ccc(S(=O)(=O)Nc2ccc(S(=O)(=O)Nc3ccc(F)cc3)cc2)cc1C | inactive
21 | Cc1cc(NC(=O)c2cc(F)c(F)cc2Cl)no1 | inconclusive: 1.26 µM [activator, single point]
22 | COc1ccc(CN(C)CC(=O)Nc2cc(OC)c([N+](=O)[O-])cc2C)c(OC)c1 | inconclusive: 35.5 µM [inhibitor, partial curve, poor fit]
23 | C=CCN1C(=O)NC(=O)/C(=C/c2cc3c4c(c2)CCCN4CCC3)C1=O | inactive

Row | SMILES | Potency
24 | CC(OC(=O)CN1C(=O)NC(C)(C)C1=O)C(=O)c1ccccc1 (centres undefined) | inconclusive: 35.5 µM [activator, single point]
25 | Cc1ccc2c(c1)c(Sc1ccccc1)c(CC(=O)O)n2C | inactive
26 | c1ccc2c(CN3CCCCCC3)c[nH]c2c1 | inconclusive: 9.2 µM [inhibitor, partial curve, poor fit]
27 | COc1cccc(-c2nnc(NC(=O)c3cccs3)s2)c1 | inconclusive: 1.41 µM [activator, partial curve, poor fit]
28 | COc1ccc(C)cc1NC1=C(Cl)C(=O)N(C2CCCCC2)C1=O | inconclusive: 20.6 µM [inhibitor, partial curve, poor fit]
29 | COc1cccc(OC)c1C(=O)Nc1ccc2c(c1)Cc1ccccc1-2 | inconclusive: 22.4 µM [activator, single point]
30 | O=C(NC1CCN(CCc2c[nH]c3ccccc23)CC1)c1ccccc1 | inconclusive: 35.5 µM [inhibitor, partial curve, poor fit]
31 | CCOc1ccccc1-c1nc(CN(Cc2cnn(C)c2)C(C)C)c(C)o1 | inconclusive: 35.5 µM [inhibitor, single point]
32 | Cn1c(=O)oc2cc(S(=O)(=O)N3CCCC(C(=O)NCc4ccc(F)cc4)C3)ccc21 (centres undefined) | inactive
33 | CN(C)CCN(C(=O)c1ccc(S(=O)(=O)N2CCc3ccccc32)cc1)c1nc2ccc(F)cc2s1 | inconclusive: 17.8 µM [inhibitor, single point]
34 | CSc1ccc(CN(C)C(=O)COc2ccc(C(=O)c3ccccc3)cc2)cc1 | inactive
35 | Cc1cc(C)c(C)c(OCC(O)CN2CCN(c3ccccn3)CC2)c1 (centres undefined) | inactive
36 | O=C(CCn1c(=O)c2sccc2n(CC(=O)NCc2ccco2)c1=O)NCc1ccccc1 | inconclusive: 16.4 µM [activator, single point]
37 | CCN(C(=O)COC(=O)/C=C/c1nc2ccccc2s1)C1CCS(=O)(=O)C1 (centres undefined) | inconclusive: 20 µM [inhibitor, partial curve, poor fit]
38 | CC(C)OP(=O)(Nc1cccc2ccccc12)OC(C)C | inconclusive: 5.01 µM [inhibitor, partial curve, poor fit]
39 | O=C(NCCN1CCN(Cc2ccc([N+](=O)[O-])cc2)CC1)C(=O)Nc1ccccc1 | inactive
40 | CCn1c(N2CCN(C(=O)NC3CCCCC3)CC2)nc2ccccc21 | inactive
41 | O=C(CSc1nc(-c2ccc(F)cc2)cs1)N1CCOCC1 | inconclusive: 0.58 µM [activator, partial curve, poor fit]
42 | C=CCNc1sc(C(=O)c2ccc(C)cc2)c(N)c1C#N | inactive
43 | CCC(CC)c1nn2c(=O)cc(COc3ccc(NC(=O)c4ccc(C)cc4)cc3)nc2s1 | inconclusive: 14.1 µM [activator, single point]
44 | CC(C)C(c1nnnn1Cc1cccs1)N1CCN(c2ccccc2)CC1 (centres undefined) | inconclusive: 1.41 µM [inhibitor, partial curve, poor fit]
45 | Cc1cc(N2CCN(CC(O)C(F)(F)F)CC2)c2ccccc2n1 (centres undefined) | inconclusive: 35.5 µM [inhibitor, single point]
46 | CCCOc1ccc(-c2nc(C#N)c(N3CCN(CC)CC3)o2)cc1 | inactive

In a second layout: 3 of the compounds above.
Cc1cc(C)c(C)c(OCC(O)CN2CCN(c3ccccn3)CC2)c1 (centres undefined)
  Potency: inactive
O=C(CCn1c(=O)c2sccc2n(CC(=O)NCc2ccco2)c1=O)NCc1ccccc1
  Potency: inconclusive: 16.4 µM [activator, single point]
CCN(C(=O)COC(=O)/C=C/c1nc2ccccc2s1)C1CCS(=O)(=O)C1 (centres undefined)
  Potency: inconclusive: 20 µM [inhibitor, partial curve, poor fit]

Next results.

Row | SMILES | Potency
47 | Cc1ccc(NC(=O)c2noc3c2CCCCC3)cc1C | inconclusive: 0.146 µM [activator, full curve, poor fit]
48 | Cc1cc(C(=O)CSc2nncs2)c(C)n1Cc1ccco1 | active: 6.31 µM
49 | Cc1ccc(C)c(CN2C(=O)c3ccccc3S(=O)(=O)c3ccc(C(=O)NCCCN4CCCC(C)C4)cc32)c1 (centres undefined) | inconclusive: 35.5 µM [inhibitor, single point]
50 | CCOc1cc(/C=N/Nc2nncc(-c3ccccc3)n2)ccc1O | inconclusive: 35.5 µM [inhibitor, single point]
51 | COC(=O)c1ccc(Cl)c(NC(=O)CN2CCN(Cc3ccccc3)CC2)c1 | inactive
52 | Cc1nc2c(-c3ccc(F)cc3)cnn2c(N)c1-c1ccc(F)cc1 | active: 5.01 µM
53 | O=S(=O)(NN=C1CCCCC1)c1ccccc1 | inconclusive: 32.6 µM [activator, partial curve, poor fit]
54 | CC(C)c1ccc(CN(C(=O)c2ccco2)C2CCS(=O)(=O)C2)cc1 (centres undefined) | inactive
55 | COC(=O)c1cc2sccc2n1Cc1nc(-c2ccc(OC)cc2)oc1C | inconclusive: 5.8 µM [inhibitor, full curve, poor fit]
56 | CCC(CC)C(=O)c1c[nH]c(C(=O)N2CCN(c3ccc(OC)cc3)CC2)c1 | inconclusive: 35.5 µM [activator, single point]
57 | O=C(Nc1cc(S(=O)(=O)N2CCOCC2)ccc1N1CCOCC1)c1c(F)cccc1Cl | inactive
58 | Cc1cccc(S(=O)(=O)CC(=O)Nc2nc(-c3ccccc3)cs2)c1 | inconclusive: 1.26 µM [inhibitor, partial curve, poor fit]
59 | COc1ccc(Cl)cc1NC(=O)CN(C)CC(=O)Nc1ccc(Br)cc1 | inactive
60 | COc1cc(-c2ccc(NC(=O)CN3CCC(C)CC3)c(OC)c2)ccc1NC(=O)CN1CCC(C)CC1 | inconclusive: 1.26 µM [inhibitor, partial curve, poor fit]
61 | CCCCN(C(=O)CCC(=O)Nc1cc(C)on1)C(C(=O)NC1CCCC1)c1cccc(OC)c1 (centres undefined) | inconclusive: 2.24 µM [inhibitor, full curve]
62 | Cc1ccc2sc(C)[n+](CCO)c2c1 | inactive
63 | C/C(=N\NC(=O)c1c(C)nc2ccccn12)c1ccccc1F | inactive
64 | CCN1C(=O)/C(=C/c2nc3ccccc3c(=O)[nH]2)c2ccccc21 | inconclusive: 2 µM [activator, partial curve, poor fit]
65 | Cc1cc(OCC(=O)N2CCCCCC2)ccc1[N+](=O)[O-] | inconclusive: 16.4 µM [activator, partial curve]
66 | COc1cccc(-c2nc(N3CCC(C)CC3)c3ccccc3n2)c1O | inconclusive: 35.5 µM [inhibitor, single point]
67 | Cc1nnc2c3ccccc3c(-c3ccccc3)nn12 | inconclusive: 6.51 µM [inhibitor, partial curve, poor fit]
68 | CCCCN(C(=O)c1ccc(S(=O)(=O)N(C)C)cc1)c1nc2ccccc2s1 | inactive
69 | Cc1ccc(Cc2cnc(NC(=O)c3cccs3)s2)cc1 | inconclusive: 35.5 µM [inhibitor, single point]
